Reference: patent publication US8663668B2, “Preservative for medical devices” (Fresenius Medical Care Deutschland GmbH, priority 2004, dated 2014)

Assay: rinsability of the preservative solution from the adsorber column
Conditions: for elution / rinsing behavior relative to PHMB: rinsing operation of the column; for more remained in the columns during preservation: subsequent tests

Compound | elution / rinsing behavior relative to PHMB | elution / rinsing behavior relative to PHMB (listed as Trp) | more remained in the columns during preservation [%] | PHMB detected at the end of the rinsing operation (limit of detection of PHMB = 0.90 mg/L) [mg/L]
N[C@@H](Cc1c[nH]c2ccccc12)C(=O)O [Tryptophan, tryptophan] | removed from the column to the same extent as PHMB | very similar to that of PHMB | 8 | 
poly(hexamethylene)biguanide [PHMB, reference compound] |  |  | 20 | < 0.90
